Measured values: paper PMC9837035 (Nature Communications, 2023)
“And” between values parts separate entries of the source, which are not always exact repeats. Equal values may be shown once. The source gives many values for each of these; only a part stands here.

Assays:
[1] = Mouse acute toxicity assay, body weight; type: in vivo, mice; conditions: 100 mg/kg
Method: All animal studies were approved by the Institutional Committee for Animal Experiments of the Institute of Microbial Chemistry, and were performed in accordance with relevant guidelines and regulations to minimize animal suffering. Four-week-old female ICR mice were purchased from Charles River Breeding Laboratories (Yokohama, Japan) and maintained in a specific pathogen-free barrier facility. […] Samples were dissolved in saline containing 10% DMSO and 1% Tween 80 and injected intravenously into mice.

[2] = Body weight of mice during 5-week administration; type: in vivo; conditions: 50 mg/kg i.p., Day 0
Method: The dosing solution contained 15% DMSO, 17.5% Cremophor EL, 8.75% EtOH, 8.75% HCO-40, and 50% PBS. Blood samples were collected once a week by Retro Orbital Sampling (75 μL Calibrated Micropipette; Drummond Scientific Company) during isoflurane anesthesia. Blood RNA was extracted using NucleoSpin RNA Blood (Takara Bio Inc.). The weight of each mouse was measured every 3 or 4 days.

## Cc1c(C(=O)NC(CCC2CC2)C(=O)Nc2ccc(C#N)cc2)[nH]c2c1C(=O)CC(C)(C)C2 (centres unmarked) [RK-701]
[1]; Day3
  The body weight of individual mice: 24.54 g and 23.99 g
[1]; Day4
  The body weight of individual mice: 23.32 g and 25.65 g and 24.34 g
[1]; Day5
  The body weight of individual mice: 23.82 g and 26.48 g and 24.91 g
[1]; Day7
  The body weight of individual mice: 25.76 g and 27.58 g and 26.65 g
[1]; Day9
  The body weight of individual mice: 24.76 g and 27.51 g and 26.40 g
[1]; Day11
  The body weight of individual mice: 27.68 g and 26.45 g and 27.52 g
[1]; Day14
  The body weight of individual mice: 27.68 g and 26.56 g and 28.28 g
[2]
  body weight of individual mice: 16.2 g
